# The whole screen tested about 53,000 sequences, of which about 3,700 (7%) were called active.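 The calls were made as follows: active = gene knockdowns whose robust z-score for IL-1 alpha signal is at least 2 or at most -2, so actives lie on both sides; inactive = the rest.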 Some of the results follow.
# Assay: Components of the Cytosolic LPS Sensing Pathway: Gene Identification via Genome-wide siRNA Screen;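 also: robust z of the log signal after scaling to non-targeting control siRNA wells of the plate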
# Conditions: RAW264.7 macrophages, IL-1a HTRF, actives lie on both sides, screened at 100 nM (by protocol), cells primed 5 h with Pam3CSK4 first
# Procedure, shortened: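 IL-1a HTRF of supernatants after 24 hour LipidA transfection of Pam3CSK4-primed (5 hours) RAW264.7 cells, 48h post-siRNA transfection (100 nM). Scores: percent of plate negative-control median, then log-based robust z-score.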
row,Sequence,z-score
1,GGGAUGGAAGAAUGUAAUGTT against Slc30a9,inactive: -1.04
2,GGAAGAGAGAUUCCUAUAGTT against Sec11a,active: -2.03
3,GGUGAUAACUGUAUUUCAGTT against Ftsj1,inactive: 0.101
4,GCGCAGAGAUUACCUUAAGTT against Gtf3a,inactive: -0.543
5,GGAAAAGUUCUUAAUGGAGTT against Cpsf7,inactive: -0.961
6,GGAGCCAUGACUUUUCACUTT against Sec22b,inactive: 0.716
7,GGUACUACUUAGUUUUACUTT against Creg1,inactive: 1.05
8,CGGCGGUUUGCUCUAUUCGTT against Pou3f2,inactive: 0.918
9,CCCUCAUCGUGUCUAUCAUTT against Unc13a,inactive: -0.233
10,CCUCUCAUGUAUCCUGUGATT against Olfr292,inactive: -0.205
11,GCCACUGUUUGUAGGAACGTT against Mmp11,inactive: -0.59
12,GCGGGUUCUUUAUGACCCUTT against Car11,inactive: 0.384
13,CCAUCACUGUCGCCUAUUGTT against Zdhhc24,inactive: 0.165
14,CCUUCUAGCCAAGACUGGATT against Epha10,inactive: 0.194
15,GGACAUUGUCUACAAGUUGTT against Pcgf2,inactive: 1.12
16,GCCAUUCUCCAUUGAGCUGTT against Pik3cd,inactive: -0.513
17,GCCACAGGAAUACAAUGUCTT against Il3ra,inactive: -0.484
18,GGUAUACAGGAUGUUAAGGTT against Pdlim4,inactive: 0.889
19,GGAGGGUGAAGAGAAUGGUTT against R3hdm2,inactive: 1.14
20,GGAAACUUUCUAAAUGCUGTT against Pja1,inactive: -0.0964
21,GCGACUUGGAGAGCAUUUGTT against Trim3,inactive: -0.368
22,CGAAGAGUCCAUCAUUGCGTT against Dcpp1,inactive: 0.302

row,Sequence,z-score
1,GGAUCCGUUCAGCAGAAGGTT against Olfr1045,inactive: 1
2,GCCUGACAUUGGGACAAAGTT against Trim34a,inactive: 0.179
3,GGAGAUGGAGAUUAACGACTT against Atp4a,inactive: -0.137
4,GCACAUGUGGAUUUCCAUCTT against Olfr547,inactive: 0.237
5,GGAUAAAGUCACCUUCAUCTT against Itgam,inactive: 1.86
6,GGAUCGGCACUGGCAUGAATT against Fhl2,inactive: -0.388
7,GGACUACUCCAGAAAGCUUTT against Wdfy3,inactive: -0.0605
8,GCUAAGAGUGCAGGAUUGGTT against Lhx2,inactive: -1.22
9,GGAGACAACAACAAGACAUTT against Tbk1,active: 3.12
10,GCUACCUACGAUGUUCAAATT against Tomm34,inactive: 1.85
11,GCGGCCUUCGAAGAUAUUCTT against Pnliprp2,inactive: -0.144
12,GGCUCAGCUAAGAAAUACGTT against Ngdn,inactive: -0.462
13,GCAUUAUCUGUGAAAAUCCTT against En2,inactive: 0.262
14,GGGUCGGCUUAUAAUUACUTT against Adam6b,inactive: -0.0247
15,GGGUAAGCCAAGAAGAAGUTT against Rgs4,inactive: -1.01
16,CCUUACUUGAUAAUCCAAATT against Dlg1,inactive: 0.84
17,CCUAAGGCUCAAUGAGCCUTT against Etfb,inactive: 0.879
18,GGGAACCGUUCUUUACUUATT against Psd3,inactive: 1.56
19,CCAAAAGCUACGUGCCGUATT against Kif5a,inactive: 0.257
20,GGGUCAAUCAACUUCGAGGTT against Pkp2,inactive: 1.14
21,GGAAAUUAAGUGGAGAUCATT against Ebag9,inactive: -0.493
22,GGUGAUGGACGGAAGAAGATT against Pigc,inactive: -1.1

row,Sequence,z-score
1,GGAAGACAACUGAACAUUUTT against Ralgds,inactive: 0.837
2,GCAGGUCUAAUAAUGGUCATT against Syt12,inactive: -0.536
3,GGCACCUAUGAGGUUCUAUTT against Sec16b,inactive: -0.615
4,GCACAAAUCUCUAAAGAUCTT against Cxcr6,inactive: 0.238
5,GGAGACAAAGCAUUAUCUATT against Usp33,inactive: -0.366
6,GGUUGAAAAGAAGUACAGUTT against Ctcf,inactive: -0.559
7,GGAUCAAAAGGUGAAUGCUTT against Vmn1r67,active: -2.54
8,GGCACACUUAAGUAAAAGUTT against Kras,inactive: -0.542
9,GGACCCUCUAGAUGACCAATT against Trem2,inactive: -1.09
10,CCACAUUUCUCUAACGAACTT against Prkra,inactive: -0.447
11,GCGUGGCUGUCAUGUAUUUTT against Olfr231,inactive: 0.247
12,ACUGGUGUUUCACCAUCAGTT against Tmem199,inactive: -1.49
13,GGCAGCAAAAAGGUUGAUUTT against Olfr1110,inactive: -0.875
14,GGUACUAGAUAGGAAACACTT against Ggact,inactive: -1.8
15,GGAAAUGCUCAAAGAUUUUTT against Cenpe,inactive: 0.115
16,GGUAACAAACCGAAAGUAUTT against Polr3k,inactive: -0.539
17,CCUCUUUGGGACUAUAGACTT against Olfr1357,inactive: -0.378
18,GGAUCUGGCGGUUACUAAGTT against Gm867,inactive: 0.776
19,GCUUCUGCUUGUUCGCUAGTT against Usp17ld,active: 2.7
20,CCAGAUUCAGUACCUCUAGTT against Kctd3,inactive: 0.805
21,GCCGUACUUCGUCAAGCUATT against Ung,inactive: 0.395
22,GGUUUCAUUUUUCGAGGAGTT against Cit,inactive: -0.269

row,Sequence,z-score
1,GCUGAAAGAAUUCGUGGACTT against Phf2,inactive: 1.69
2,GGCCUCAUGCAGGAACAUUTT against Polr2d,active: -2.34
3,CGACCAUUGUGACUGGAGATT against Olfr782,inactive: 0.2
4,GCUUUUGAAGCGACUGGGATT against Frk,inactive: -0.0967
5,CCGUGGACAUGAAAACACCTT against Ly6g6e,inactive: 0.713
6,GCUUCAAUGAGGAGUAUCUTT against Smpdl3b,inactive: -0.617
7,GGUUUCAAUAAUCCAGGAATT against Naa16,inactive: 0.352
8,GGAAUUUUGGAAUCACUAGTT against Ssr1,inactive: -0.699
9,GGACAAAUUUGCAUAGAUUTT against Rab10os,active: 2.93
10,GGUCUAUCAGUGCAUCGUGTT against BC052040,inactive: 0.0181
11,CCGUAAGUCUCGGAUCUCCTT against Plcxd1,inactive: 0.373
12,GCCUUUCCUACUAUGAAUATT against Bmx,inactive: 0.748
13,GGGAUCAUAGACGAUAUUUTT against Fnbp4,inactive: -1.59
14,GGCUUCAUGCUGGUCCUUGTT against Pim2,inactive: -1.62
15,GGUGAAGACCUUUGUCUCCTT against Matn3,inactive: -0.122
16,GGCUGACCACCAAAUUGUUTT against Krtap1-5,inactive: -0.583
17,GGGUAAUUUUGAUAUUGUCTT against Dpm1,inactive: -1.1
18,GGCAACUCUAUAGAAGAAATT against Trim65,inactive: -0.831
19,CCCAACUUCAUUUGUGUAUTT against Itga4,inactive: -0.406
20,GCUGGAUCUAGGUACCAAGTT against Slx1b,inactive: -0.313
21,GCAGGUGAAACAAUCGCCUTT against Ctnnal1,inactive: -1.01
22,CGGCAAGUUUAAGAAGGACTT against Uqcr11,inactive: -0.848

# Quoted from the listing.
# Under z-score, GGUUUCAAUAAUCCAGGAATT against Naa16 shows inactive: 0.352
# Under z-score, GCUGAAAGAAUUCGUGGACTT against Phf2 shows inactive: 1.69
# Under z-score, GGCUUCAUGCUGGUCCUUGTT against Pim2 shows inactive: -1.62

# Remaining list, next part:

row,Sequence,z-score
1,CCAAGGGUUGUUAAGUAUUTT against Cdh26,inactive: 1.08
2,CCAAGAUUCGGUUUUGCUUTT against Trerf1,inactive: -0.33
3,GGUUGUGAGUGAGAACACUTT against Prss35,inactive: 0.738
4,GGGAGCCACUCUGAAGAUCTT against Pkm,inactive: -0.744
5,GGAACAAGAACAAAAAGCATT against Cwc15,inactive: -1.47
6,CUUCCAGUGUAGACUUAUGTT against 9430025C20Rik,inactive: 1.61
7,CCAGUAUGUCUGUAAGUGATT against Wnt5b,inactive: -0.126
8,GGAGAUGCAGGUCUUCUUGTT against Adipoq,inactive: 0.326
9,GUGAUGCGCAUUUCGAGUCTT against Sf3b5,inactive: -0.335
10,GCCAAUCCCUAUGAGAUGATT against Cmtr1,inactive: 0.44
11,GCCAUUGAUUGAACUCUCCTT against Pip5k1a,inactive: -0.381
12,GCAAGGAAGGAUAUUACACTT against Mmp24,inactive: 1.34
13,GAAGCCUGGAAGGAAAACUTT against Smim11,inactive: 0.971
14,GGAAAAGGCAAUCGUUUCUTT against Mtg2,inactive: 0.278
15,GGUGAAAAAAGGAAGCAAATT against Senp6,inactive: 1.15
16,GGAGAUCUCCUCAGCCACATT against Gemin4,active: -2.14
17,GCUGGGUGAAUAAUGUUAATT against Sytl2,inactive: 0.774
18,GGCUAACCGUGGCUUCAUCTT against Lamc1,inactive: -1.65
19,GCGUUUGUGAAGCAUAUCATT against Myl3,inactive: -0.276
